According to paper PMC7335091, “Mechanistic insights into chromatin targeting by leukemic NUP98-PHF23 fusion” (Nature Communications, 2020):
Results are given in words; binding and its absence hold for the method and conditions named. Non-standard residues stand in square brackets, D forms with d. No end group written: not given here. Lys(Me3) = C[N+](C)(C)CCCC[C@H](N)C(=O)O

The chains behind the UniProt entries cited, without tags or fusion partners. Where a name states a change or a piece, a line headed by the entry shows the natural chain unless it says otherwise. A line that says so, or that is headed by a name, gives the form on record, which may keep a tag or linker.
PHD finger of PHF23 (aa 338-393), M353V mutant (Q9BUL5, form named): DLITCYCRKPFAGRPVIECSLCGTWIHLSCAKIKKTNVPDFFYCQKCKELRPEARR
PHD finger of PHF23 (aa 338-393), W362A mutant (Q9BUL5, form named): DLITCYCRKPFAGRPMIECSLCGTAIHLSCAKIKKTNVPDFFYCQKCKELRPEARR

What was measured:
[1] = biological target: PHD finger of PHF23 (aa 338-393), M353V mutant (human) (UniProt Q9BUL5); experiment: other fluorescence titration + NMR titration; PHF23PHD mutants with H3K4me3 peptide, measured by tryptophan fluorescence or by NMR titration (Fig. 2e); which method for which mutant is marked only in the figure; both purified
[2] = biological target: PHD finger of PHF23 (aa 338-393), W362A mutant (human) (UniProt Q9BUL5); experiment: as above

B1: histone H3K4me3 peptide (aa 1-12 of H3K4me3) (peptide, UniProt P68431 2-13, looked up)
peptide: ART[Lys(Me3)]QTARKSTG
notes: histone H3, residues 1-12, trimethylated on Lys4; source: synthetic peptide (SynPeptide)
binding [1]: no binding | binding [2]: no binding
